Source: PubChem BioAssay AID1259254 (NCATS, 2017)

Assay: 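Gene knock-downs that lead to re-replication, shown by excess G2 DNA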 (primary screen)
Cell system: human HCT116 colorectal cancer cells
Knock-down reagent: single siRNA against human genes
Timing: 3 days
Measured: 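Nuclei stained with Hoechst and imaged; cell-cycle phase assigned by DNA content; G2 share scaled per plate, non-targeting siRNA 0%, GMNN siRNA 100%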
Direction: G2 robust z-score and G2 cells, % of GMNN control: higher = more G2 cells, more excess DNA replication
Active means: 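Active siRNAs have a G2 robust z of 5 or more median absolute deviations over the median, which in these data means about 38% or higher of GMNN control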
In all, the deposit lists about 59,000 reagents; shown is an unselected part. In the full data, about 1,550 (2.6%) are marked active. 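G2 share is only a proxy for re-replication; each gene was hit by three separate siRNAs, and active genes were retested.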 Reagents against one gene are numbered here. Not all columns of the deposit are shown. No sequences are given here. Not given: the amount of reagent.

Gene	reagent no.	G2 robust z-score	G2 cells, % of GMNN control	Call
CD101	1	0.461	6.21	inactive
CD101	2	-0.284	0.968	inactive
CD101	3	0.562	6.92	inactive
KIF3A	1	-1.17	-5.29	inactive
KIF3A	2	-0.484	-0.441	inactive
KIF3A	3	-0.455	-0.236	inactive
GRIFIN	1	-0.55	-0.904	inactive
GRIFIN	2	0.312	5.17	inactive
GRIFIN	3	-0.758	-2.37	inactive
LRRN4	1	0.121	3.82	inactive
LRRN4	2	-0.472	-0.354	inactive
LRRN4	3	-1.05	-4.42	inactive
MAGEA12	1	-1.14	-5.08	inactive
MAGEA12	2	1.5	13.5	inactive
MAGEA12	3	0.469	6.27	inactive
DISC1	1	3	24.1	inactive
DISC1	2	0.476	6.31	inactive
DISC1	3	-0.257	1.16	inactive
KCNJ14	1	-0.715	-2.07	inactive
KCNJ14	2	-1.13	-4.97	inactive
KCNJ14	3	-0.306	0.814	inactive
RPN1	1	0.0338	3.21	inactive
RPN1	2	-0.317	0.74	inactive
RPN1	3	0.768	8.37	inactive
ZFYVE27	1	-0.452	-0.21	inactive
ZFYVE27	2	-0.196	1.59	inactive
ZFYVE27	3	-0.654	-1.63	inactive
SIPA1L1	1	1.35	12.4	inactive
SIPA1L1	2	-0.411	0.0783	inactive
SIPA1L1	3	-1.47	-7.39	inactive
ZIM2	1	0.0235	3.13	inactive
ZIM2	2	0.298	5.06	inactive
ZIM2	3	-0.892	-3.31	inactive
ADGRA1	1	-0.41	0.0856	inactive
ADGRA1	2	-1.23	-5.68	inactive
ADGRA1	3	-0.433	-0.0782	inactive
UTF1	1	-0.198	1.58	inactive
UTF1	2	0.192	4.32	inactive
UTF1	3	1.22	11.5	inactive
SCUBE3	1	-0.716	-2.07	inactive
SCUBE3	2	1.47	13.3	inactive
SCUBE3	3	0.0356	3.22	inactive
RADX	1	0.443	6.08	inactive
RADX	2	0.354	5.45	inactive
RADX	3	-0.83	-2.87	inactive
KRABD5P1	1	0.345	5.4	inactive
KRABD5P1	2	-0.0729	2.45	inactive
KRABD5P1	3	0.269	4.86	inactive
AHNAK	1	2.35	19.5	inactive
AHNAK	2	1.5	13.5	inactive
AHNAK	3	0.765	8.35	inactive
SNTB2	1	1.29	12	inactive
SNTB2	2	3.43	27.1	inactive
SNTB2	3	2.04	17.3	inactive
CARMN	1	1.59	14.1	inactive
CARMN	2	-0.528	-0.746	inactive
CARMN	3	-0.666	-1.72	inactive
GMFB	1	0.0293	3.17	inactive
GMFB	2	0.241	4.66	inactive
GMFB	3	-0.418	0.0297	inactive
DUSP11	1	-0.923	-3.53	inactive
DUSP11	2	0.242	4.67	inactive
DUSP11	3	-0.549	-0.893	inactive
OR51M1	1	1.66	14.7	inactive
OR51M1	2	1.05	10.4	inactive
OR51M1	3	0.316	5.19	inactive
ITIH6	1	-0.207	1.51	inactive
ITIH6	2	-0.32	0.718	inactive
ITIH6	3	-0.396	0.179	inactive
